At least one read-out could not be matched to a standard name with certainty. At least one compound was matched to its structure with a doubt left.
Assay: Analytical determination of additive levels recovered from latex
Assay type: physicochemical
Conditions: additive added during polymerization

SMILES: Cc1ccc(S(=O)(=O)C(I)I)cc1 [Amical AF, Diiodomethyltoluyl sulfone]
- Incorporation into / recovery from latex (in words): poorly incorporated

SMILES: Oc1cc(Cl)ccc1Oc1ccc(Cl)cc1Cl [Triclosan, Chlorodiphenyl ether]
- Incorporation into / recovery from latex (in words): Significant amounts

Reference: US20080182125A1, “Cationic latex as a carrier for bioactive ingredients and its use in wallboard manufacture” (priority 2006, published 2008)
